# Results taken from patent publication US20240277742A1, “TRANSLATION INHIBITOR WITHOUT OCCUPYING RIBOSOME RESOURCES AS ANTI-TUMOR DRUG” (CHI BIOTECH CO., LTD., priority 2022, published 2024).
# At least one structure is not confirmed: it was looked up by name or label, or the drawing left a doubt.
# Tested on: ribosomes
# Test: Sucrose density ultracentrifugation (polysome profiling) of drug-treated cell lysates
# Type: cell-based
# Settings: methyl aurintricarboxylate 50 μg/mL; Harringtonin 10 μg/mL; Kasugamycin 10 μg/mL; Pateamine A 2 μM; Hippuristanol 1 μM
# Procedure: Example 2 Proof that methyl aurintricarboxylate, Kasugamycin and Hippuristanol are all translation inhibitors without occupying ribosome resources Using methods well known to those skilled in the art, sucrose density ultracentrifugation (polysome profiling) was carried out to measure polysomes. Ultracentrifugation was performed on normal cell lysates and drug-treated cell lysates at 15-50% sucrose density gradient, the solution was pumped out slowly, and OD260 nm (260 nm Optical Density) was measured. In FIG. 2A, the black line, gray solid line and gray dashed line are the experimental curves of normal cells, cells treated with methyl aurintricarboxylate (concentration 50 μg/mL) and cells treated with Harringtonin (concentration 10 μg/mL) respectively. In FIG. 2B, the gray solid line, gray dashed line, and black dotted line are the experimental curves of cells treated with Kasugamycin (concentration 10 μg/mL), Pateamine A (concentration 2 μM), and Hippuristanol (concentration 1 μM), respectively. The peak heights of the curves are related to concentration.
smiles,measurement,value
O=C(O)C1=CC(=C(c2ccc(O)c(C(=O)O)c2)c2ccc(O)c(C(=O)O)c2)C=CC1=O [aurintricarboxylic acid],"polysome profile (OD260 nm peaks of 40S, 60S, 1× and polysomes)",peaks of 40S and 60S dominate
